Consider one substance from article PMC9943068.

Amino acid sequences for entries named in this document (tags omitted).
UniProt P18248: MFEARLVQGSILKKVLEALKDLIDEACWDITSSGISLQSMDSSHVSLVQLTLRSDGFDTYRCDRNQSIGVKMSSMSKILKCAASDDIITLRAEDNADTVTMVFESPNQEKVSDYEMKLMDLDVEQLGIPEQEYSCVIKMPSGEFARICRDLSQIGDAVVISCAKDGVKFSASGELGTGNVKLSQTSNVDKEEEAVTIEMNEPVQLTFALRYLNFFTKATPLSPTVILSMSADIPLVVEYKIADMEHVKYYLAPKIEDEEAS

Where a chain is given by its changes, count along the chain named. No constants are given. Whether binding was seen depends on the method and setting. In cells and extracts the contact can be indirect. Some binding calls cover weakened binding; strength is not graded here. Where a sequence is shown, tags or fusion partners need not be part of it.

For experiment [1], the target named is T1, GST-PAF15 wild-type (Xenopus PAF15) (Xenopus) (UniProt Q5HZL4).
T1 sequence: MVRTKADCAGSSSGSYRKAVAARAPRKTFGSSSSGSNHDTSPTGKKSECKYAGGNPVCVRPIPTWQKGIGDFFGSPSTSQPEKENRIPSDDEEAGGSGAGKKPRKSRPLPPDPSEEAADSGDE
In words: pull-down; GST or GST-PAF15 proteins immobilized on Glutathione Sepharose 4B, incubated with interphase egg extracts 2 hr at 4°C; washed with CPB, 2% sucrose, 0.1% Triton X-100; immunoblotting; only the target purified. (In general: In western blotting, separated proteins are transferred to a membrane and probed.)

Experiment [2] addresses T2, GST-PAF15 triple mutant (SAKA) (Xenopus) (UniProt Q5HZL4).
T2 sequence: T1 sequence with S79A, S97A, K101A, K105A
The description is as above.

On to “PCNA (proliferating cell nuclear antigen), endogenous Xenopus (from UniProt P18248 1-261)”, for which the binding result in experiment [1] and in experiment [2] was “binds” throughout.
